Record: PubChem BioAssay AID1224830 (NIAID, 2016)
In all, the deposit lists about 18,000 reagents; below is a random part of them. In the full data, about 2,900 (16%) were called active. 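Calls are made per well; low scores hint the gene aids the LPS response, high scores that it dampens it.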 Repeated entries: four replicate wells of each siRNA pool. Reagent sequences are not shown.

Assay: 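Genes whose knock-down alters the TNF-alpha reporter response to LPS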 (primary screen)
System: human THP-1 monocytic leukaemia cells, TNF dual-luciferase reporter clone, PMA-differentiated to macrophage-like cells
Reagent: siRNA pool against human genes, 50 nM
Time to read-out: LPS for 4 h, given about 3 days after siRNA transfection
Challenge: bacterial LPS (TLR4 ligand), 10 ng/ml
Detection: 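TNF firefly reporter luminescence divided by renilla, normalised to the plate median, then turned into a robust z-score for each replicate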
Scale: TNF reporter robust z-score: higher = stronger TNF reporter response to LPS
Hit rule: 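a well is active when its z-score exceeds 2.8 or falls below -1.5; control wells carry no call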

no.	Target gene	TNF reporter robust z-score	Outcome
1	EDEM3 (GeneID 80267)	0.28	inactive
2	EDEM3 (GeneID 80267)	0.48	inactive
3	EDEM3 (GeneID 80267)	-0.97	inactive
4	EDEM3 (GeneID 80267)	1.66	inactive
5	DGCR6 (GeneID 8214)	-0.36	inactive
6	DGCR6 (GeneID 8214)	-0.52	inactive
7	DGCR6 (GeneID 8214)	0.22	inactive
8	DGCR6 (GeneID 8214)	0.56	inactive
9	RP1L1 (GeneID 94137)	-0.9	inactive
10	RP1L1 (GeneID 94137)	0.01	inactive
11	RP1L1 (GeneID 94137)	0.11	inactive
12	RP1L1 (GeneID 94137)	0.05	inactive
13	CDC25B (GeneID 994)	-1.03	inactive
14	CDC25B (GeneID 994)	-1.01	inactive
15	CDC25B (GeneID 994)	0.15	inactive
16	CDC25B (GeneID 994)	-1.02	inactive
17	CSN1S1 (GeneID 1446)	-1.15	inactive
18	CSN1S1 (GeneID 1446)	0.13	inactive
19	CSN1S1 (GeneID 1446)	-0.67	inactive
20	CSN1S1 (GeneID 1446)	-0.84	inactive
21	ABRA (GeneID 137735)	-0.68	inactive
22	ABRA (GeneID 137735)	-0.77	inactive
23	ABRA (GeneID 137735)	-0.04	inactive
24	ABRA (GeneID 137735)	-0.23	inactive
25	FMC1 (GeneID 154791)	-1.33	inactive
26	FMC1 (GeneID 154791)	-1.48	inactive
27	FMC1 (GeneID 154791)	-1.55	active
28	FMC1 (GeneID 154791)	-1.42	inactive
29	EML2 (GeneID 24139)	-1.04	inactive
30	EML2 (GeneID 24139)	-0.85	inactive
31	EML2 (GeneID 24139)	-0.68	inactive
32	EML2 (GeneID 24139)	-0.94	inactive
33	DORIP1 (GeneID 122525)	-0.87	inactive
34	DORIP1 (GeneID 122525)	0.05	inactive
35	DORIP1 (GeneID 122525)	-0.33	inactive
36	DORIP1 (GeneID 122525)	-0.18	inactive
37	HMCN2 (GeneID 256158)	-1.17	inactive
38	HMCN2 (GeneID 256158)	-1.68	active
39	HMCN2 (GeneID 256158)	-1.39	inactive
40	HMCN2 (GeneID 256158)	-1.11	inactive
41	SPMIP3 (GeneID 200159)	-0.05	inactive
42	SPMIP3 (GeneID 200159)	0.7	inactive
43	SPMIP3 (GeneID 200159)	1.05	inactive
44	SPMIP3 (GeneID 200159)	-1.04	inactive
45	RBKS (GeneID 64080)	-0.79	inactive
46	RBKS (GeneID 64080)	-0.55	inactive
47	RBKS (GeneID 64080)	-0.5	inactive
48	RBKS (GeneID 64080)	-1.64	active
49	DVL2 (GeneID 1856)	-0.04	inactive
50	DVL2 (GeneID 1856)	0.69	inactive
51	DVL2 (GeneID 1856)	0.25	inactive
52	DVL2 (GeneID 1856)	0.4	inactive
53	NKX6-1 (GeneID 4825)	-0.64	inactive
54	NKX6-1 (GeneID 4825)	-0.25	inactive
55	NKX6-1 (GeneID 4825)	-0.97	inactive
56	NKX6-1 (GeneID 4825)	-0.41	inactive
57	CYB5R2 (GeneID 51700)	0.52	inactive
58	CYB5R2 (GeneID 51700)	0.88	inactive
59	CYB5R2 (GeneID 51700)	0.53	inactive
60	CYB5R2 (GeneID 51700)	1.06	inactive
61	NMNAT3 (GeneID 349565)	-1.15	inactive
62	NMNAT3 (GeneID 349565)	-1.76	active
63	NMNAT3 (GeneID 349565)	-1.01	inactive
64	NMNAT3 (GeneID 349565)	-1.32	inactive
65	PLD3 (GeneID 23646)	-0.61	inactive
66	PLD3 (GeneID 23646)	-0.59	inactive
67	PLD3 (GeneID 23646)	-1.41	inactive
68	PLD3 (GeneID 23646)	-0.9	inactive
69	TPRX1 (GeneID 284355)	0.82	inactive
70	TPRX1 (GeneID 284355)	0.07	inactive
71	TPRX1 (GeneID 284355)	-0.03	inactive
72	TPRX1 (GeneID 284355)	0.18	inactive
73	LYRM4 (GeneID 57128)	-1.2	inactive
74	LYRM4 (GeneID 57128)	-1.05	inactive
75	LYRM4 (GeneID 57128)	-0.57	inactive
76	LYRM4 (GeneID 57128)	0.33	inactive
